Reference: PubChem BioAssay AID504793 (Drosophila RNAi Screening Center, 2011)

- Assay: 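Knock-downs allowing continued mitosis even though DNA is damaged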 (primary screen)
- System: Drosophila S2R+ cells
- Reagents: long dsRNA against Drosophila genes, about 0.25 µg dsRNA per well
- Duration: 4 days of dsRNA, then 4 hours of drug before read-out
- Challenge: doxorubicin 0.5 µM for 4 hours to cause double-strand breaks, in cells also given a low, harmless dose of dsRNA against nbs to sensitise the assay
- Measurement: 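Mitotic index as the number of phospho-histone H3-positive cells in each well following doxorubicin, given as raw counts without normalisation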
- Scale: mitotic cells: higher = more cells in mitosis, weaker G2 arrest
- Active means: 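a call needs confirmation in secondary tests, with other dsRNAs and a check of mitotic timing without damage, not just a high primary count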
- Meaning of the calls: active = confirmed in follow-up tests; inactive = not confirmed
In all, the deposit lists about 23,000 reagents; this is a random part of those with a known target gene and a result. In the full data, 62 (0.27%) were called active. 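Calls come from follow-up tests whose scores are not deposited, so confirmed genes may have low counts here; counts are not normalised per plate.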 The raw values are shown without normalisation. The numbers tell different reagents against one gene apart. A plus sign joins genes that one reagent is predicted to hit.

no.	target	reagent no.	mitotic cells, replicate 1	mitotic cells, replicate 2	call
1	CG1387	1	4		inactive
2	CG30325	1	7		inactive
3	CG4768	1	9	6	inactive
4	Rph	1	20		inactive
5	Rph	2	1		inactive
6	Mic26-27	1	2		inactive
7	CG10903	1	1		inactive
8	CG17470	1	4		inactive
9	dnc	1	6		inactive
10	dnc	2	14		inactive
11	dnc	3	13		inactive
12	Prestin	1	11		inactive
13	Nup154	1	5		inactive
14	Nup154	2	6		inactive
15	SelG	1	14		inactive
16	SelG	2	6		inactive
17	CG12991	1	12		inactive
18	CG12991	2	10		inactive
19	Naa40	1	9		inactive
20	Cpr50Ca	1	15		inactive
21	Cpr50Ca	2	4		inactive
22	Cpr50Ca	3	4		inactive
23	LPCAT	1	8		inactive
24	LPCAT	2	11		inactive
25	CG31954	1	6		inactive
26	CG31954	2	7		inactive
27	ZnT63C	1	16		inactive
28	ZnT63C	2	10		inactive
29	ZnT63C	3	4		inactive
30	ZnT63C	4	15		inactive
31	ZnT63C	5	4		inactive
32	CG3149	1	6		inactive
33	CG3149	2	7		inactive
34	Spg7	1	12		inactive
35	janA	1	8		inactive
36	janA	2	6		inactive
37	CG7203	1	1		inactive
38	CG7203	2	3		inactive
39	Nup153	1	5	9	inactive
40	CG5892	1	8		inactive
41	CG5892	2	3		inactive
42	CG30392	1	10		inactive
43	CG2652	1	4		inactive
44	CG2652	2	11		inactive
45	CG2652	3	7		inactive
46	CG3906	1	9		inactive
47	CG3906	2	5		inactive
48	Rab10	1	7		inactive
49	Rab10	2	7		inactive
50	CG5565	1	3		inactive
51	CG11788	1	4		inactive
52	gammaCOP	1	17		inactive
53	Grip84	1	84		inactive
54	Grip84	2	101		inactive
55	Ddrgk1	1	7		inactive
56	Ddrgk1	2	4		inactive
57	Alp6	1	4		inactive
58	Nhe1	1	3		inactive
59	prg	1	4		inactive
60	Rab4	1	7		inactive
61	Btnd	1	13		inactive
62	Btnd	2	5		inactive
63	CG6426	1	5		inactive
64	Ku80	1			inactive
65	Ku80	2	5		inactive
66	msd5	1	64		inactive
67	msd5	2	47		inactive
68	CG33521	1	7		inactive
69	CG33521	2	9		inactive
70	CG33521	3	4		inactive
71	l(3)73Ah	1	3		inactive
72	Rab9D + Rab9E + Rab9Db + 1 more	1	3		inactive
73	Taz	1	11		inactive
74	Taz	2	7		inactive
75	Taz	3	7		inactive
76	Pabp2	1	3		inactive
77	CG4586	1	12		inactive
78	CG5790	1	3		inactive
79	CG5790	2	3		inactive
80	prd	1	9		inactive
81	CG12436 (retired record) + CG42514	1	9		inactive
82	Pepck1	1	1		inactive
83	Pepck1	2	3		inactive
84	CG32201	1	15		inactive
85	Glyp	1	9		inactive
86	CG7031	1	12		inactive
87	CG7031	2	18		inactive
88	CG8405	1	10		inactive
89	CG8405	2	9		inactive
90	CG3635	1	5		inactive
91	Gr64f	1	4		inactive
92	Gr64f	2	2		inactive
93	CG13700	1	4		inactive
94	CG13700	2	6		inactive
95	AOX3	1	7		inactive
96	Alg12	1	4		inactive
97	Septin4	1	3		inactive
98	Septin4	2	8		inactive
99	Tim9a	1	8		inactive
100	lectin-30A	1	4		inactive
101	bgcn	1	4		inactive
102	bgcn	2	7		inactive
103	eEF2	1	10		inactive
104	CG15390	1	6		inactive
105	CG14095	1	3		inactive
106	CG9776	1	4		inactive
107	roh	1	8		inactive
108	CG17002	1	3		inactive
109	CG17002	2	2		inactive
110	Snapin + HemK2	1	2		inactive
111	CG11655	1	11		inactive
112	CG30172	1	10		inactive
113	CG30172	2	1		inactive
114	CG14963	1	2		inactive
115	Ktl	1	6		inactive
116	Ugt303A1	1	5		inactive
117	Prtl99C	1	5		inactive
118	ecd	1	14		inactive
119	eIF2D	1	7		inactive
120	CG42750	1	4		inactive
121	CG42750	2	10		inactive
122	CG42750	3	8		inactive
123	CG42750	4	7		inactive
124	CG42750	5	6		inactive
125	CG42750	6	2		inactive
126	opm	1	2		inactive
127	opm	2	5		inactive
128	opm	3			inactive
129	CG14106	1	4		inactive
130	Timp	1	6		inactive
131	pn	1	8		inactive
132	pn	2	14		inactive
133	CG14631	1	7		inactive
134	CG14631	2	16		inactive
135	wb	1	2		inactive
136	wb	2	4		inactive
137	wb	3	8		inactive
138	wb	4	9		inactive
139	CG6972	1	9		inactive
140	CG6972	2	8		inactive

Single entries from the entries so far.
For “mitotic cells, replicate 1”, Nup153 is entered as 5
Under “mitotic cells, replicate 1”, CG2652 #3 has 7
Ktl, mitotic cells, replicate 1: 6
For “mitotic cells, replicate 1”, LPCAT #1 reads 8
Taz #2, call: inactive
dnc #1, mitotic cells, replicate 1 → 6
